At least one read-out could not be matched to a standard name with certainty.
What was measured:
[1] = Peptide stability by HPLC-PDA (0 h vs 3 h); type: physicochemical; conditions: 1 mg/mL in acetonitrile/water + 0.1% m/V formic acid, 3 h incubation at 20° C., HPLC-PDA 210 nm
Procedure: The 3 h peptide stability was evaluated by high performance liquid chromatography equipped with a photo diode array detector.
The peptide stability of peptide […] (SEQ ID No: 1) was evaluated with HPLC-PDA and the Vydac Everest C18 column. The analytical solution (1 mg/mL) in acetonitrile/water (V/V)+0.1% m/V formic acid (i.e. matching solvent composition as the anti-adsorption diluent without hydrolysate components) was chromatographed with the gradient provided in Table 3. Analysis was performed with a Waters Alliance 2695 HPLC with a Waters 2695 Separations Module, combined with a Flow Through Needle, and a Waters 2996 Photodiode Array Detector with Empower 2 software for data acquisition (Waters, Milford, Mass., USA).
The peptide was injected at 0 h and 3 h.

[2] = Proof of principle (pilot experiment): peptide recovery over time in uncoated glass vial inserts, UHPLC-MS/MS; type: physicochemical
Procedure: The peptide with amino acid sequence […] (SEQ ID No: 1) was stored in uncoated (U)HPLC vial inserts at a concentration of 100 ng/mL in 2 different solvents for a total of approximately 2 h. […] The vials were stored in the UHPLC autosampler compartment during analysis and at 0 min a vial containing solvent 1 and 100 ng/mL peptide was injected onto the UHPLC-MS/MS to serve as reference. The peptide recovery was calculated by dividing the peptide peak area of each time point and condition by the peptide peak area of sample 0 min in solvent 1. Appropriate blank samples were first subjected to the UHPLC-MS/MS for evaluation of interfering substances. This experiment was performed in uniplicate.
UHPLC-MS/MS of peptide […] was conducted with an Acquity H-class quaternary solvent manager, connected to an Acquity Xevo TQ-S triple quadrupole mass spectrometer (Waters, Milford, Mass., USA). The column compartment was kept at 45° C. and the sample compartment at 20° C. Mobile phase A consisted of water/acetonitrile/dimethylsulfoxide 90/5/5 V/V/V supplemented with 0.1% m/V formic acid and mobile phase B consisted of water/acetonitrile/dimethylsulfoxide 5/90/5 V/V/V supplemented with 0.1% m/V formic acid. Chromatography was performed with an Acquity UHPLC BEH300 C18 column (2.1×100 mm, 1.7 μm particle size) (Waters) protected with a suitable guard column. […]

MFPTIPLSRLFDNAMLRAH (Pilot peptide) [pilot experiment peptide]
Recovery (3 h/0 h x 100) [1]: 101%
Peptide recovery (peak area relative to 0 min in solvent 1) ([2]; 100 ng/mL in anti-adsorption diluent Source 1, glass vial insert, more than 2 hours): approximately 110%
Peptide recovery (peak area relative to 0 min in solvent 1) ([2]; 100 ng/mL in same solvent composition without anti-adsorption components (50/50 water/acetonitrile + 0.1% formic acid), glass vial insert, after 2 hours): below 10%

From US20230089604A1, “ANTI-ADSORPTION SOLUTION” (Universiteit Gent, priority 2019, published 2023)
